Here are results for eight molecules from patent publication US20070218064A1.

Chains of the proteins cited; added tags and fusions are not shown. Lines headed by an entry give the natural chain unless they say otherwise; changes in a name come on top.
UniProt P29460: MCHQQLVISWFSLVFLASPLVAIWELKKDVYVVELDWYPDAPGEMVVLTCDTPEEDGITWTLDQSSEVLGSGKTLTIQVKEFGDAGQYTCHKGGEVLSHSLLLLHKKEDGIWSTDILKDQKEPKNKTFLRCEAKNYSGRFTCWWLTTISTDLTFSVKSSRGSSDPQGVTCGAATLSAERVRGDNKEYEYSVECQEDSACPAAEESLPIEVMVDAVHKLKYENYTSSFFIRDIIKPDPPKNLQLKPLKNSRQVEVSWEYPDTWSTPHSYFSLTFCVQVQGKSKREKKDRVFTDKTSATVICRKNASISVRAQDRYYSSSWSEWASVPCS

Assay [1] has as its target recombinant human IL-23 (hrIL-23), produced at Centocor (human) (UniProt P29460). The assay is described as follows: ELISA, antigen in solution to immobilized Fab.
Assay [2] deals with linked rhIL-23 with no His-tag (from R&D Systems) (human) (UniProt P29460). As to the kind of experiment: ELISA, antigen in solution to immobilized Fab. In general terms: In an ELISA, binding on a coated surface is turned into a signal by an enzyme label.
Assay [3] deals with recombinant human IL-23 (hrIL-23), produced at Centocor (human) (UniProt P29460). As to the kind of experiment: IL-23 binding, hrIL-23 subunit specificity (cytokine capture ELISA).

Residue numbers refer to the chain shown, from its start. No constants are given. Whether binding was seen depends on the method and setting. Some binding calls cover weakened binding; strength is not graded here.

B1: Fab MOR04205 (Fab, V domains shown)
VH: QVQLVQSGAEVKKPGESLKISCKGSGYSFTNYWISWVRQAPGKGLEWMGWIRPGDSDTRYSPSFEGQVTISADKSISTAYLQWSSLKASDTAMYYCARHYYGMDYWGQGTLVTVSS
VL: DIVLTQPPSVSGAPGQRVTISCSGSSSNIGSYYVNWYQQLPGTAPKLLIYGNTHRPSGVPDRFSGSKSGTSASLAITGLQSEDEADYYCQTYASLGPGEVFGGGTKLTVL
In the case of B1, the binding entry in assay [1] and in assay [2] was “binds” in each case.

B2: mAb MOR04205 (antibody, human IgG1, V domains shown)
VH: B1 VH with Q3E
VL: B1 VL
Turning to B2, the binding entry in assay [3] was “binds”.

B3: Fab MOR04658 (Fab, V domains shown)
VH: QVQLVESGGGLVQPGGSLRLSCAASGFTFSSFGMSWVRQAPGKGLEWVSNISSSGSSTYYADSVKGRFTISRDNSKNTLYLQMNSLRAEDTAVYYCARYWGTPYLMQFDNWGQGTLVTVSS
VL: DIALTQPASVSGSPGQSITISCTGTSSDVGGYNSVSWYQQHPGKAPKLMIYSVSSRPSGVSNRFSGSKSGNTASLTISGLQAEDEADYYCSSYDTNKPLVVFGGGTKLTVL
In the case of B3, the binding result in assay [1] and in assay [2] was “binds” each time.

B4: mAb MOR04658 (antibody, human IgG1, V domains shown)
VH: B3 VH with Q3E
VL: B3 VL
As to B4, the binding result in assay [3] was “binds”.

B5: Fab MOR04649 (Fab, V domains shown)
VH: QVQLVQSGAEVKKPGESLKISCKGSGYSFSNYWIGWVRQMPGKGLEWMGIIDPSNSYTNYSPSFQGQVTISADKSISTAYLQWSSLKASDTAMYYCARWYYKPFDVWGQGTLVTVSS
VL: DIVLTQPPSVSGAPGQRVTISCTGSSSNIGSGYDVHWYQQLPGTAPKLLIYGNSKRPSGVPDRFSGSKSGTSASLAITGLQSEDEADYYCSSWTPSSVVFGGGTKLTVL
Consider B5, for which the binding result in assay [1] and in assay [2] was “binds” in each case.

B6: mAb MOR04649 (antibody, human IgG1, V domains shown)
VH: B5 VH with Q3E
VL: B5 VL
Regarding B6, the binding result in assay [3] was “binds”.

B7: Fab MOR04217 (Fab, V domains shown)
VH: QVQLVESGGGLVQPGGSLRLSCAASGFTFSSYWITWVRQAPGKGLEWVSYISSSGSSTYYADSVKGRFTISRDNSKNTLYLQMNSLRAEDTAVYYCARGTFWSFGNYFANWGQGTLVTVSS
VL: DIVLTQSPATLSLSPGERATLSCRASQSIFYNLAWYQQKPGQAPRLLIYGASNRATGVPARFSGSGSGTDFTLTISSLEPEDFATYYCQQYSSEPVTFGQGTKVEIK
As for B7, the binding result in assay [1] and in assay [2] was “binds” throughout.

B8: mAb MOR04217 (antibody, human IgG1, V domains shown)
VH: B7 VH with Q3E
VL: B7 VL
B8: in assay [3], the binding result is listed as “binds”.
